Data: PubChem BioAssay AID504444 (National Center for Advancing Translational Sciences (NCATS), 2011)
Hit rate of the full screen: of about 360,000 compounds, about 7,500 (2.1%) were called active. Inconclusive means that the source gave no clear call. Such entries were picked first, then a sample of the others. The call rests on the fitted dose curve; in most records, active means well fitted inhibition curve with a large enough effect; inconclusive means small, poorly fitted or top-dose-only effect, or effect the other way; inactive means flat fitted curve, though single readings scatter. Potencies beside an inconclusive call are fits to weak or partial responses and may not hold up.
On the % scale 0 is the no-effect control and ±100 the full control effect; potency means the concentration at half of the fitted maximal effect.

Assay: Nrf2 qHTS screen for inhibitors; further: nearly all actives have a fitted effect of over 60% in size
Conditions: A549 ARE-Fluc reporter, luciferase luminescence, 18-24 h; activity change, negative = inhibition: at 46 µM (top of the series)
How it was run: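 A549 ARE_Fluc cells, 5000/well, 5% FBS OPTI-MEM; compounds in dose-response, 18-24 h at 37 °C/5% CO2; CellTiter-Fluor viability read (Ex 405/Em 525), then BugLite luciferase luminescence = Nrf2 activity.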
In the case of `CC[C@H]1c2[nH]c3ccccc3c2C[C@@H]2C(=O)N(c3ccc(F)cc3)C(=O)N21`, the Potency was inconclusive: 20.6 µM [falling, single point]. In the case of `O=C(Nc1ccc(Cl)cn1)C1CCN(c2ncnc3c2nc2n3CCCCC2)CC1`, the Potency was inconclusive: 9.2 µM [falling, partial curve, poor fit]. In the case of `Cc1ccc(NC(=O)Cn2c(=O)n(Cc3nc(-c4ccccc4)no3)c(=O)c3cc4c(cc32)OCO4)cc1F`, the “activity change, negative = inhibition” value was inactive: 10.8%. For `COC(=O)c1ccccc1NC(=O)C1CC(=O)N(c2ccc(OC)cc2)C1` (stereo not given), the Potency was inconclusive: 8.2 µM [falling, partial curve]. With `COc1ccccc1/C=N/NC(=S)Nc1cccnc1` the Potency was inconclusive: 6.51 µM [activator, single point]. In the case of `CCOC(=O)C1=C(c2ccccc2)NC(=S)NC1c1ccc(C)c([N+](=O)[O-])c1` (stereo not given), the Potency was inconclusive: 5.8 µM [falling, partial curve, poor fit]. With `COc1ccc2nc(NC(=O)c3ccccc3F)sc2c1` the Potency was active: 1.3 µM. With `Cn1c(=O)cc(SCC(=O)N2CCCC2)c2ccccc21` the “activity change, negative = inhibition” value was inactive: -12.6%. With `CC1(NC(=O)c2cccc(S(=O)(=O)N3CCN(c4ccccc4)CC3)c2)CCS(=O)(=O)C1` (stereo not given) the Potency was inconclusive: 13 µM [falling, partial curve, poor fit]. For `C=CCn1c(C)cc(C(=O)Cn2ncc(Cl)c(Cl)c2=O)c1C`, the Potency was inconclusive: 29.1 µM [falling, single point]. For `Cc1ccc(C)c(-n2c(-c3ccc(Br)cc3)csc2=NC(=O)c2ccccc2F)c1`, the Potency was inconclusive: 11.6 µM [falling, partial curve]. With `O=C(c1ccc(Cl)c(S(=O)(=O)N2CCCCC2)c1)N1CCN(c2ccccc2)CC1` the Potency was active: 23.1 µM. In the case of `CCc1cccc2sc(N3CCN(C(=O)c4ccc([N+](=O)[O-])o4)CC3)nc12`, the “activity change, negative = inhibition” value was inactive: -99%. With `COCCN(Cc1cccs1)S(=O)(=O)c1cc(-c2cc(C)no2)ccc1C` the Potency was inconclusive: 29.1 µM [falling, single point]. In the case of `COc1ccc(Cl)c2sc(N3CCN(C(=O)C4=COCCO4)CC3)nc12`, the Potency was inconclusive: 25.9 µM [falling, partial curve, poor fit]. In the case of `CN(C)S(=O)(=O)c1ccc(N2CCCC2)c(C(=O)Nc2nc3c(ccc4ccccc43)s2)c1`, the Potency was inconclusive: 0.366 µM [falling, partial curve, poor fit]. In the case of `COc1ccc(OCCN2CCN(S(=O)(=O)c3ccccc3C#N)CC2)cc1`, the Potency was inconclusive: 29.1 µM [falling, single point]. With `COc1ccc(/C=C/C(=O)NC(=S)NNC(=O)c2cccs2)cc1` the Potency was inconclusive: 29.1 µM [activator, single point]. In the case of `Cc1ccccc1CSc1ncc(C#N)c(N)n1`, the Potency was inconclusive: 23.1 µM [activator, partial curve]. For `O=C(NCC1CCCO1)c1cc(Br)c(Br)s1` (stereo not given), the “activity change, negative = inhibition” value was inactive: -23.9%. For `CCCCC(=O)Nc1cccc(NC(=O)c2cccc([N+](=O)[O-])c2)c1`, the Potency was inconclusive: 10.3 µM [falling, partial curve, poor fit]. With `COc1ccc(CNc2nc3nc(C)cc(C)n3n2)cc1OC` the Potency was inconclusive: 2.06 µM [falling, partial curve, poor fit]. With `Fc1ccc(Nc2ccc3ccccc3n2)c(F)c1` the Potency was inconclusive: 3.26 µM [activator, full curve]. For `CCOc1ccc(CCNC(=O)C2CCN(C(=O)N3CC(CC)Oc4ccccc43)CC2)cc1` (stereo not given), the Potency was inconclusive: 29.1 µM [falling, single point]. In the case of `COc1cc(NC(=O)COc2cc3oc(=O)cc(C)c3cc2Cl)cc(OC)c1OC`, the Potency was inconclusive: 29.1 µM [falling, single point]. For `COc1cc(C(=O)Nc2ccccc2NC(=O)c2cc(OC)c(OC)c(OC)c2)cc(OC)c1OC`, the Potency was inconclusive: 29.1 µM [falling, single point]. With `O=C(Nc1nnc(N2CCCCCC2)s1)Nc1cc(F)ccc1F` the “activity change, negative = inhibition” value was inactive: 25.4%. In the case of `CC(OC(=O)C1=COCCO1)C(=O)NC1(C#N)CCCCC1` (stereo not given), the “activity change, negative = inhibition” value was inactive: 1.65%. With `COc1ccc(CSc2nnc(SCc3ccc([N+](=O)[O-])cc3)s2)cc1` the Potency was inconclusive: 29.1 µM [falling, single point]. In the case of `CC(C)c1ccc(CN(C(=O)c2cccs2)C2CCS(=O)(=O)C2)cc1` (stereo not given), the Potency was inconclusive: 32.6 µM [falling, partial curve, poor fit]. With `CCCn1nnc(NC(=O)c2ccc3c(c2)OCO3)n1` the Potency was inconclusive: 23.1 µM [activator, single point]. In the case of `CN(CC(=O)NCCCN1CCOCC1)S(=O)(=O)c1ccc(Br)cc1`, the Potency was inconclusive: 6.51 µM [activator, single point]. For `O=C(NCc1ccc(Cl)cc1)c1cnc2sc(N3CCOCC3)nn2c1=O`, the Potency was inconclusive: 0.092 µM [activator, full curve, poor fit]. In the case of `Cc1cc2c(=O)n(C)c(SCC(=O)Nc3cccc(F)c3)nc2s1`, the Potency was inconclusive: 20.6 µM [falling, partial curve, poor fit]. For `COc1ccsc1C(=O)N1CCN(Cc2ccc3c(c2)OCO3)CC1`, the Potency was inconclusive: 0.58 µM [falling, full curve, poor fit]. In the case of `CC(C)C[C@@H](CSc1ccc(Br)cc1)N1CCN(C)CCC1=O`, the Potency was inconclusive: 10.3 µM [activator, partial curve]. In the case of `COc1ccc(NC(c2nnc(-c3ccccc3)o2)c2ccccc2F)cc1Cl` (stereo not given), the Potency was inconclusive: 29.1 µM [falling, single point]. With `CCn1c(C(=O)O)c(CC(=O)Nc2ccccc2F)c2ccccc21` the Potency was inconclusive: 18.4 µM [falling, partial curve, poor fit]. With `Cc1ccc(SCCNC(=O)c2ccc(C)c(S(=O)(=O)Nc3cccc(C)c3)c2)cc1` the Potency was inconclusive: 18.4 µM [falling, single point]. For `CC1CCC(NC(=O)c2ccc3nc[nH]c3c2)CC1` (stereo not given), the Potency was inconclusive: 2.06 µM [activator, partial curve, poor fit]. In the case of `CC(C)C(=O)Nc1ccc2nc(SCC(=O)N3CCCC3)sc2c1`, the “activity change, negative = inhibition” value was inactive: -1.68%. For `C/C(=N\NC(=O)c1csc(C)c1C)c1ccco1`, the Potency was inconclusive: 0.58 µM [activator, partial curve, poor fit]. With `COc1ccc(NC2=NC(C)(CO)CS2)cc1` (stereo not given) the Potency was inconclusive: 16.4 µM [activator, single point]. With `CCc1ccc(OCC(=O)NC(Cc2c[nH]c3ccccc23)C(=O)O)cc1` (stereo not given) the “activity change, negative = inhibition” value was inactive: 1.95%. For `Cc1ccc(CCN2C(=O)c3ccccc3C2C(=O)NCc2cccnc2)cc1` (stereo not given), the Potency was inconclusive: 7.31 µM [falling, partial curve, poor fit]. With `O=C(COC(=O)/C(=C/c1cccs1)c1cccs1)NC(c1ccccc1)c1ccccc1` the “activity change, negative = inhibition” value was inactive: -28.5%. For `CCCCc1ccc(-c2csc(/C(C#N)=C/c3ccco3)n2)cc1`, the Potency was inconclusive: 0.517 µM [falling, full curve]. In the case of `Cc1ccccc1N(CC(=O)NCCSc1ccccn1)S(=O)(=O)c1ccccc1`, the Potency was inconclusive: 3.66 µM [falling, single point]. With `c1ccc2c(c1)Cc1cc(CN3CCOCC3)ccc1-2` the Potency was inconclusive: 4.11 µM [activator, full curve]. In the case of `CCc1ccc(NC(=O)c2ccc(CN3CC(=O)N4CCCCC4C3=O)cc2)cc1` (stereo not given), the “activity change, negative = inhibition” value was inactive: 3.44%. In the case of `C=CCC[C@H](Cc1ccc(F)cc1)C(=O)OC[C@H](Cc1c[nH]c2ccccc12)NC(=O)[C@@H](CC=C)CC(=O)N[C@H](CO)Cc1ccccc1`, the Potency was inconclusive: 29.1 µM [falling, single point]. For `O=C(CCNC(=O)c1ccco1)Nc1nc2ccccc2s1`, the Potency was inconclusive: 8.2 µM [activator, partial curve]. With `COc1ccc(Cl)cc1C(=O)Nc1ccccc1N1CCN(C(=O)C(C)C)CC1` the Potency was inconclusive: 29.1 µM [falling, single point]. In the case of `COc1ccc(OC)c(Nc2ncnc3ccccc23)c1`, the Potency was inconclusive: 1.84 µM [falling, full curve, poor fit]. With `CCOc1ccc(S(=O)(=O)N2CCN(C(=O)c3cc([N+](=O)[O-])ccc3N3CCOCC3)CC2)cc1` the “activity change, negative = inhibition” value was inactive: -10.3%. For `O=C(NCc1cccc(CNC(=O)C(=O)NCC2CCCO2)c1)C(=O)NCC1CCCO1` (stereo not given), the “activity change, negative = inhibition” value was inactive: 11.3%. For `CC1CC(C)CN(C(=O)c2cc3ccccc3o2)C1` (stereo not given), the Potency was inconclusive: 14.6 µM [activator, single point]. For `COc1ccc(C2c3c(ncn(CCCc4ccccc4)c3=N)Oc3ccc4ccccc4c32)cc1OC` (stereo not given), the “activity change, negative = inhibition” value was inactive: 3.86%. For `NC(=O)N/N=C\c1cc(Br)ccc1O`, the “activity change, negative = inhibition” value was inactive: 16.6%. For `O=C(CN1C(=O)NC2(CCCCC2)C1=O)N1CCN(S(=O)(=O)c2cccc([N+](=O)[O-])c2)CC1`, the “activity change, negative = inhibition” value was inactive: -1.4%. With `COc1ccc(NC(=O)O/N=C2/CCCc3ccc(OC)cc32)cc1` the Potency was inconclusive: 16.4 µM [falling, partial curve, poor fit]. With `O=C(CCNS(=O)(=O)c1ccc(OC(F)(F)F)cc1)NCCc1c[nH]c2ccccc12` the Potency was inconclusive: 13 µM [falling, single point]. With `Cc1ccc(CCNS(=O)(=O)c2cc(-c3cc(C)no3)ccc2C)cc1` the Potency was inconclusive: 25.9 µM [falling, single point]. With `CN(CC(=O)Nc1ccc(Cl)c(C(F)(F)F)c1)C(=O)CC1Sc2ccccc2NC1=O` (stereo not given) the Potency was inconclusive: 16.4 µM [falling, single point]. With `Cc1ccc2nc(-c3ccc(NC(=O)CSc4nccc(=O)[nH]4)cc3)sc2c1` the Potency was inconclusive: 5.8 µM [activator, partial curve].
